This is an account of results in publication PMC10567835.

The assay has as its target T1, ubiquitin-specific peptidase 8 (USP8), labeled with flag (UniProt P40818).
T1 sequence: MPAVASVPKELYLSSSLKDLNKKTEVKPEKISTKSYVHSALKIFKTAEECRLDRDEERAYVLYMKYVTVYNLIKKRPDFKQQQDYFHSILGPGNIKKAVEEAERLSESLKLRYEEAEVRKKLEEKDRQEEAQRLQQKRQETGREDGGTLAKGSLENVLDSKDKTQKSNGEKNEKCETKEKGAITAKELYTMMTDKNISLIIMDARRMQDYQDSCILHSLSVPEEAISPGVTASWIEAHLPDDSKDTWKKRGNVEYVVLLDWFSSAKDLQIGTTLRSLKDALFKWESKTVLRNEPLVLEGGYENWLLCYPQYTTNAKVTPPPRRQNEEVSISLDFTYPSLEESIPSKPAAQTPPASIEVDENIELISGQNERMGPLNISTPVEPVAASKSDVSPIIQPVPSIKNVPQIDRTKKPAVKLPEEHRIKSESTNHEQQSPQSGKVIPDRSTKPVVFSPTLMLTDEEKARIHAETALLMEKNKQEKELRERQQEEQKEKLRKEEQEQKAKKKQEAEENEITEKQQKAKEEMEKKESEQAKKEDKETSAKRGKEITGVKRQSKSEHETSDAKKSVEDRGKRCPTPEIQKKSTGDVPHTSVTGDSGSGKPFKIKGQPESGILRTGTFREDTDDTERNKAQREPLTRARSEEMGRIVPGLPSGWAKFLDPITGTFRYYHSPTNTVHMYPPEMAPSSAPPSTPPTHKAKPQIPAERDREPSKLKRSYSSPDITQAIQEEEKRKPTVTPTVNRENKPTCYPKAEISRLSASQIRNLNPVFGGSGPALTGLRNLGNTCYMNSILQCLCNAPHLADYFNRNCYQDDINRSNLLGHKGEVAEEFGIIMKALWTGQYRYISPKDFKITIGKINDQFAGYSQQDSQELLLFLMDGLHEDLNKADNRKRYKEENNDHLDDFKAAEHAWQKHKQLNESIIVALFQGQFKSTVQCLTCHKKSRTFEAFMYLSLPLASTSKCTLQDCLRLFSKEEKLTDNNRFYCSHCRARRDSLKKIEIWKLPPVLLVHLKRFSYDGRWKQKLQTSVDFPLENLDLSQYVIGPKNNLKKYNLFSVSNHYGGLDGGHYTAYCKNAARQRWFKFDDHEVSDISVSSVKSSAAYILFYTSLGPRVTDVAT
As to the kind of experiment: co-IP; hBMSC lysate; probed with flag-labeled USP8 or HA-labeled ASCL1 at 4°C for 3 h; immunoprecipitated protein analysed.

These are yes or no findings as the source states them, for the method shown. Binding seen in cells or lysates may run through a third protein. Some results given as binding are weak or reduced against the parent protein; the word gives no strength. Where a sequence is shown, tags or fusion partners need not be part of it.

B1: Achaete cut complex homolog like 1 (ASCL1), labeled with hemagglutinin (HA) (protein, UniProt P50553 1-236)
chain: MESSAKMESGGAGQQPQPQPQQPFLPPAACFFATAAAAAAAAAAAAAQSAQQQQQQQQQQQQAPQLRPAADGQPSGGGHKSAPKQVKRQRSSSPELMRCKRRLNFSGFGYSLPQQQPAAVARRNERERNRVKLVNLGFATLREHVPNGAANKKMSKVETLRSAVEYIRALQQLLDEHDAVSAAFQAGVLSPTISPNYSNDLNSMAGSPVSSYSSDEGSYDPLSPEEQELLDFTNWF
In the case of B1, the binding entry was “binds”.
